Counter-ions that a name gives are not always drawn.
Tested on: rabbits with intact skin
Assay: Screening of antihistamines for dermal irritation (24/72 hour screen, Draize grading)
Conditions: 24/72 hour dermal irritation screen in rabbits with intact skin; formulation strength as given in the label

## CN(C)CCOC(c1ccccc1)c1ccccc1 [Diphenhydramine HCl]
  Rabbit Dermal Irritation: (+)

From patent EP0188538B1, “TRANSDERMAL DELIVERY OF AZATADINE” (priority 1984, dated 1986)
